Results: patent publication US7217548B2, “N-acetylglucosaminlytransferase and polynucleotide encoding the same” (National Institute of Advanced Industrial Science and …, priority 2000, dated 2007)
Part of at least one peptide drawing is inferred or uncertain, most often the ends. Peptide text beside a SMILES is read from it. * marks the point of attachment. αMan = OC[C@H]1O[C@H](*)[C@@H](O)[C@@H](O)[C@@H]1O

System: OMGnT
Experiment: Substrate specificity of OMGnT expressed in animal cells (summary of properties)
Format: biochemical, human
Details: reactivity toward mannosylnanopeptide regarded as 100%
Source text: The biochemical properties of the OMGnT: an enzyme protein massively expressed in animal cells as described above are as follows.

CC(=O)N[C@@H](C)C(=O)N[C@@H](C)C(=O)N1CCC[C@H]1C(=O)N[C@H](C(=O)N1CCC[C@H]1C(=O)N[C@H](C(=O)N[C@@H](C)C(=O)N[C@@H](C)C(=O)N1CCC[C@H]1C(N)=O)C(C)C)[C@@H](C)O[C@H]1O[C@H](CO)[C@@H](O)[C@H](O)[C@@H]1O [Man-peptide, Ac-Ala-Ala-Pro-Thr(Man)-Pro-Val-Ala-Ala-Pro-NH2] (Ac-AAPT(αMan)PVAAP-NH2)
reactivity of the enzyme toward sugar receptor: 100%
